These are yes or no findings as the source states them, for the method shown. Binding seen in cells or lysates may run through a third protein. Binding calls can cover weak binding; strength is not graded here. Tags and fused reporters may be left off the sequences shown.
Columns and labels:
[1] = target: T1, FLAG-tagged human RNase L (human) (UniProt Q05823); experiment: co-IP; HEK 293T treated with 1 uM MLN4924, cotransfected with pFLAG-CMV2-RNase L and pHTN-SA11NSP1; lysates at 24 h pt on anti-FLAG M2 magnetic beads; wash 50 mM Tris pH 7.4, 150 mM NaCl, 0.1% Tween 20; half of the beads treated with RNase A/T1 cocktail 15 min at 37 C; immunoblot with anti-HaloTag
T1 sequence: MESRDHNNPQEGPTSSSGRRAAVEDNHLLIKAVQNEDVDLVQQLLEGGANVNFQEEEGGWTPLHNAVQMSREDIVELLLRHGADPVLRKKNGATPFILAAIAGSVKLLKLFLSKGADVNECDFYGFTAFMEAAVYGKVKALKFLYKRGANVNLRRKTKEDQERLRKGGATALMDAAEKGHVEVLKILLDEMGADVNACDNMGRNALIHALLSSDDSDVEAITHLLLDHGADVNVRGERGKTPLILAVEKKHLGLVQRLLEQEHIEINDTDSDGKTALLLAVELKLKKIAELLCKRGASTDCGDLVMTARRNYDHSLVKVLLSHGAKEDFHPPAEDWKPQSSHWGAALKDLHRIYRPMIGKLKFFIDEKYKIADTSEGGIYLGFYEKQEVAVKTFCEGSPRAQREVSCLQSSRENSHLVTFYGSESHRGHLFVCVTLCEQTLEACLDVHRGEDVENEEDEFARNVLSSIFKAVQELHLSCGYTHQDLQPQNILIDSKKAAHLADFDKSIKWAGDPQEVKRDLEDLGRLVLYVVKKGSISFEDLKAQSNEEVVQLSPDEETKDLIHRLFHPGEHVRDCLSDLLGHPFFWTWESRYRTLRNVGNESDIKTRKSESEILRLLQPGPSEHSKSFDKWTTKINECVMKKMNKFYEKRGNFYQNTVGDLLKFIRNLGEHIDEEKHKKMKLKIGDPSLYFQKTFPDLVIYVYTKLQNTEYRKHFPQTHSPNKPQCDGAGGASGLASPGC

[2] = target: Halo-tagged SA11 NSP1 (simian rotavirus SA11 (group A rotavirus)); experiment: pull-down; reciprocal: the same HEK 293T lysates (MLN4924) on HaloLink resin; wash 50 mM Tris pH 7.4, 150 mM NaCl, 0.5% Triton X-100, 1 mg/mL BSA; half of the resin treated with RNase cocktail; immunoblot with anti-FLAG

Molecule | binding [1] | binding [2]
Halo-tagged SA11 NSP1 | binds | 
FLAG-tagged human RNase L (enzyme, UniProt Q05823 1-741) MESRDHNNPQEGPTSSSGRRAAVEDNHLLIKAVQNEDVDLVQQLLEGGANVNFQEEEGGWTPLHNAVQMSREDIVELLLRHGADPVLRKKNGATPFILAAIAGSVKLLKLFLSKGADVNECDFYGFTAFMEAAVYGKVKALKFLYKRGANVNLRRKTKEDQERLRKGGATALMDAAEKGHVEVLKILLDEMGADVNACDNMGRNALIHALLSSDDSDVEAITHLLLDHGADVNVRGERGKTPLILAVEKKHLGLVQRLLEQEHIEINDTDSDGKTALLLAVELKLKKIAELLCKRGASTDCGDLVMTARRNYDHSLVKVLLSHGAKEDFHPPAEDWKPQSSHWGAALKDLHRIYRPMIGKLKFFIDEKYKIADTSEGGIYLGFYEKQEVAVKTFCEGSPRAQREVSCLQSSRENSHLVTFYGSESHRGHLFVCVTLCEQTLEACLDVHRGEDVENEEDEFARNVLSSIFKAVQELHLSCGYTHQDLQPQNILIDSKKAAHLADFDKSIKWAGDPQEVKRDLEDLGRLVLYVVKKGSISFEDLKAQSNEEVVQLSPDEETKDLIHRLFHPGEHVRDCLSDLLGHPFFWTWESRYRTLRNVGNESDIKTRKSESEILRLLQPGPSEHSKSFDKWTTKINECVMKKMNKFYEKRGNFYQNTVGDLLKFIRNLGEHIDEEKHKKMKLKIGDPSLYFQKTFPDLVIYVYTKLQNTEYRKHFPQTHSPNKPQCDGAGGASGLASPGC |  | binds

Reference: paper PMC9765674
